According to PubChem BioAssay AID493014 (National Center for Advancing Translational Sciences (NCATS), 2011):
The list shows a part of the results. The main result of the screen is listed elsewhere. These columns were measured beside it and carry no call. Most of these compounds were active or inconclusive in the main read-out, so they are no random draw. The note in brackets gives the kind of curve behind each potency; many fits are weak.

Assay: qHTS Assay to Find Inhibitors of Chronic Active B-Cell Receptor Signaling
Conditions: ABC-DLBCL IkBa-CBG/CBR reporter, luminescence ratio (green luciferase fused to IkBa over red control in TMD8 lymphoma cells), 4 h
How it was run: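 Concentration-response series (up to 46 uM) were applied to TMD8 dual-reporter cells for 4 h at 37C with doxycycline. Green/red ratio, after filter-overlap correction, defined %Activity; red signal alone was normalised to basal cells and zero luminescence.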

[1] = measured here: CBR red luminescence, cell number
[2] = measured here: IkBa-CBG green luminescence

Row | Structure (SMILES) | AC50 [1] | AC50 [2]
1 | Cc1nc(C)c(C(=O)NNC(=O)c2ccc(Br)cc2)s1 | 29.1 µM [falling, single point] | –
2 | COc1ccccc1NC(=O)CN1CCOCC1 | 5.62 µM [rising, partial curve, poor fit] | –
3 | COc1ccc(CNC(=O)C2CCN(S(=O)(=O)c3ccc4c(c3)NC(=O)CO4)CC2)cc1 | 22.4 µM [falling, single point] | –
4 | CCNCCNC(=O)c1c(O)c2cccc3c2n(c1=O)CCC3 | 11.2 µM [falling, single point] | –
5 | CC(Sc1nc(O)c(-c2ccccc2)c(=O)[nH]1)C(=O)Nc1ccc(Cl)cc1 (stereo not drawn) | 7.08 µM [falling, full curve, poor fit] | –
6 | c1ccc(-c2c(-c3ccccc3)n(Cc3ccco3)c3ncnc(NCCCn4ccnc4)c23)cc1 | 18.4 µM [falling, single point] | –
7 | CCOC(=O)N1CCC(NS(=O)(=O)c2cc3c(cc2Cl)NC(=O)CO3)CC1 | 2.91 µM [rising, partial curve] | –
8 | O=C(NC1CCCCCC1)c1cccc(N2CCCC2=O)c1 | 2.31 µM [falling, partial curve, poor fit] | –
9 | COc1ccccc1CNc1ncccc1[N+](=O)[O-] | 0.112 µM [rising, full curve, poor fit] | –
10 | COc1ccc(NC(C)=O)cc1S(=O)(=O)Nc1ccc(OCc2ccccc2)cc1 | 35.5 µM [falling, single point] | –
11 | O=C(Nc1cccc(Cl)c1)C1COc2ccccc2O1 (stereo not drawn) | 0.891 µM [rising, partial curve, poor fit] | –
12 | COCCCNC(=O)/C(C#N)=C/c1cccc(NC(=O)c2ccccc2Cl)c1 | 8.2 µM [falling, partial curve, poor fit] | 29.1 µM [falling, single point]
13 | COc1ccc(CNC(=O)C(c2ccncc2)N(C(=O)Cc2cccs2)c2ccc(C)cc2)cc1 (stereo not drawn) | 25.9 µM [falling, partial curve, poor fit] | –
14 | COc1ccc(NC(=O)CCOc2ccc(C)cc2)cc1S(=O)(=O)N1CCCCC1 | 6.51 µM [rising, single point] | –
15 | Cc1cc(C)n(-c2ccc(Cl)c(C(=O)OCC(N)=O)n2)n1 | 0.231 µM [falling, full curve, poor fit] | –
16 | CCCOc1ccc(-c2nc(-c3ccc(N)cc3)cs2)cc1 | 14.1 µM [rising, partial curve] | –
17 | CC1=C(C(=O)Nc2ccccc2)C(c2ccc(C(=O)O)cc2)n2nc(SCC(=O)c3ccc(C)cc3)nc2N1 (stereo not drawn) | 35.5 µM [falling, single point] | –
18 | O=c1c2ccccc2ncn1CCCCOc1ccccc1F | 0.0891 µM [rising, full curve, poor fit] | –
19 | Cc1ccc2nc(SCC(=O)Nc3cc(C(F)(F)F)ccc3N3CCOCC3)[nH]c2c1 | 29.1 µM [rising, single point] | 11.6 µM [falling, partial curve]
20 | C=CCSc1nc2sc(C)c(C)c2c(=O)n1N | 14.6 µM [rising, partial curve] | –
21 | CS(=O)(=O)c1ccccc1COC(=O)Nc1ccc(Cl)cc1 | 11.2 µM [falling, partial curve, poor fit] | –
22 | COc1ccc(C(OCC(O)CN(C)C2CCCCC2)c2ccc(OC)cc2)cc1 (stereo not drawn) | 15.8 µM [falling, single point] | –

Row | Structure (SMILES) | AC50 [1] | AC50 [2]
23 | NCCCCCc1nnc(SC/C=C/c2ccccc2)o1 | 0.651 µM [falling, partial curve, poor fit] | –
24 | CC1=CC(C)(C)N(S(=O)(=O)c2ccc(F)cc2)c2ccc(C)cc21 | 20.6 µM [rising, single point] | 25.9 µM [falling, single point]
25 | Cc1ccc(-n2ncc3c(NNC(=O)c4ccccc4C)ncnc32)cc1 | 8.91 µM [falling, partial curve] | –
26 | O=C(N/N=C/c1ccccc1O)c1ccc2c(c1)OCO2 | 10 µM [falling, partial curve] | –
27 | Cc1ccc(NC(=O)c2cccs2)cc1S(=O)(=O)Nc1cccc(Cl)c1 | 25.9 µM [falling, single point] | –
28 | O=C(CCl)N=c1sccn1Cc1ccc(Cl)cc1Cl | 7.08 µM [falling, partial curve] | –
29 | O=C(NCc1nc(-c2ccccc2)no1)c1cccs1 | 1.41 µM [rising, full curve, poor fit] | –
30 | O=C(NCc1cccc(F)c1)c1cccc2c1C(=O)c1ccc(Cl)cc1S2(=O)=O | 0.58 µM [rising, full curve, poor fit] | –
31 | N#CC1(C#N)C(C(N)=O)C1c1ccccc1 (stereo not drawn) | 5.8 µM [rising, partial curve, poor fit] | –
32 | C=C(C)Cn1c(N(CCO)Cc2ccccc2)nc2c1c(=O)[nH]c(=O)n2C | 18.4 µM [rising, partial curve, poor fit] | –
33 | ClCc1nnc(-c2ccccc2)o1 | 23.1 µM [falling, partial curve] | –
34 | Cn1cc(CCC(=O)N2CCCC(C(=O)c3ccc(C(C)(C)C)cc3)C2)cn1 (stereo not drawn) | 35.5 µM [rising, partial curve, poor fit] | –
35 | CCc1nnc(N2C(=N)SCC2=O)s1 | 1 µM [rising, full curve, poor fit] | –
36 | Cc1nc2c(C#N)c(-c3ccc(Cl)cc3)ccn2n1 | 20 µM [rising, partial curve, poor fit] | –
37 | O=S(=O)(c1cccc2c(S(=O)(=O)N3CCCC3)cccc12)N1CCCC1 | 3.66 µM [falling, partial curve, poor fit] | –
38 | CCC1=NN2C(=N)/C(=C\c3cccn3-c3ccc(C)c(C)c3)C(=O)N=C2S1 | 15.8 µM [rising, partial curve, poor fit] | –
39 | CC1CCc2c(sc(NC(=O)c3cccn3C)c2C(N)=O)C1 (stereo not drawn) | 23.1 µM [falling, single point] | –
40 | CN(C)S(=O)(=O)c1ccc(NC(=S)NC(=O)Cc2ccccc2)cc1 | 3.16 µM [falling, partial curve, poor fit] | –
41 | CN(Cc1ccccc1)C(=O)COC(=O)c1cc(=O)[nH]c2ccccc12 | 23.1 µM [rising, partial curve, poor fit] | –
42 | Cc1occc1C(=O)O/N=C(\N)c1ccc(Cl)cc1 | 7.94 µM [falling, partial curve, poor fit] | –
43 | Nc1cc(=O)[nH]c(SCC(=O)N2CCc3ccccc3C2)n1 | 35.5 µM [rising, single point] | –
44 | Nc1c(-c2ccc(Cl)cc2)nnn1-c1ccccc1 | 18.4 µM [falling, partial curve, poor fit] | –

2 of the compounds above, as labelled records:
CN(C)S(=O)(=O)c1ccc(NC(=S)NC(=O)Cc2ccccc2)cc1
  AC50 [1]: 3.16 µM [falling, partial curve, poor fit]
CN(Cc1ccccc1)C(=O)COC(=O)c1cc(=O)[nH]c2ccccc12
  AC50 [1]: 23.1 µM [rising, partial curve, poor fit]

A section from the list above, for reference:
Row | Structure (SMILES) | AC50 [1] | AC50 [2]
40 | CN(C)S(=O)(=O)c1ccc(NC(=S)NC(=O)Cc2ccccc2)cc1 | 3.16 µM [falling, partial curve, poor fit] | –
41 | CN(Cc1ccccc1)C(=O)COC(=O)c1cc(=O)[nH]c2ccccc12 | 23.1 µM [rising, partial curve, poor fit] | –

Later entries:

Row | Structure (SMILES) | AC50 [1] | AC50 [2]
45 | CC(C)(C)c1ccc(/C=N/NC(=O)C2CCCC2)cc1 | 15.8 µM [rising, partial curve, poor fit] | –
46 | O=C(CS(=O)(=O)c1ccccc1)Nc1nnc(C(F)(F)F)s1 | 12.6 µM [falling, single point] | –
47 | Cc1nc2ccc(NC(=O)c3ccccc3)cc2s1 | 11.2 µM [falling, partial curve, poor fit] | –
48 | CCCn1c(COc2ccccc2)nc2ccccc21 | 17.8 µM [falling, single point] | –
49 | CCc1cc2c(=O)[nH]c(-c3ccncc3)nc2s1 | 13 µM [falling, partial curve, poor fit] | –
50 | Cc1c(C(=O)NCCSCc2cccc(C(F)(F)F)c2)cnn1-c1ccc(Cl)cc1 | 35.5 µM [falling, single point] | –
51 | CCCN(CCC)Cc1c(C(=O)N/N=C/c2c[nH]c3ccccc23)nnn1-c1nonc1N | 35.5 µM [falling, single point] | –
52 | O=C(Nc1ccc(Br)cc1)c1cc2ccccn2n1 | 14.1 µM [falling, partial curve] | –
53 | O=C(CSc1ncnc2scc(-c3ccccc3)c12)NCc1ccc2c(c1)OCO2 | 29.1 µM [falling, partial curve, poor fit] | –
54 | O=C(Nc1nnc(C2=COCCO2)o1)c1ccc(F)cc1 | 28.2 µM [falling, partial curve] | 22.4 µM [falling, single point]
55 | COc1ccccc1C(=O)NCCc1nc2ccccc2[nH]1 | 31.6 µM [falling, single point] | –
56 | Cc1ccc(-c2[nH]c(=O)n3ccncc23)s1 | 8.91 µM [rising, partial curve, poor fit] | –
57 | COc1ccc(-c2cn[nH]c2-c2ccc(OCc3ccc(F)cc3)cc2O)cc1OC | 20 µM [falling, single point] | –
58 | CC(C)(C)c1ccc(CN2C3=NCCCN3c3ccccc32)cc1 | 25.9 µM [falling, single point] | –
59 | COc1ccc(NC(=O)Cn2c(=O)n(-c3ccc(Cl)cc3)c(=O)c3c(C)c(C(=O)N(C)C)sc32)cc1Cl | 3.98 µM [rising, single point] | –
60 | Cc1cc(C(=O)Nc2ccon2)cs1 | 0.92 µM [falling, full curve, poor fit] | –
61 | c1ccc2nc(-c3nc4ccccc4o3)ccc2c1 | 0.326 µM [falling, full curve, poor fit] | –
62 | O=C(NC1CC(=O)N(c2ccccc2)C1)C1CCCC1 (stereo not drawn) | 35.5 µM [rising, partial curve, poor fit] | –
63 | Cc1nc(-c2ccccc2)nc2[nH]c(C(C)C)cc(=O)c12 | 1.46 µM [falling, full curve, poor fit] | –
64 | O=C(Nc1cc2c(cc1Br)OCCO2)c1ccco1 | 0.092 µM [rising, full curve, poor fit] | –

2 compounds drawn at random from the list so far:
Row | Structure (SMILES) | AC50 [1] | AC50 [2]
55 | COc1ccccc1C(=O)NCCc1nc2ccccc2[nH]1 | 31.6 µM [falling, single point] | –
46 | O=C(CS(=O)(=O)c1ccccc1)Nc1nnc(C(F)(F)F)s1 | 12.6 µM [falling, single point] | –
